{"source": "patent US9133119B2", "about": "“Compounds for electronic devices” (Merck Patent GmbH, priority 2010, dated 2015)", "key": {"[1]": {"experiment": "OLED lifetime (LD80 / LD50: time until the luminous density drops to a certain proportion of the initial luminous density)"}, "[2]": {"experiment": "OLED characterisation: operating voltage, current efficiency, power efficiency, external quantum efficiency, electroluminescence spectra (IUL characteristic lines)", "conditions": "for difference between the voltage for a thick HTL (200 nm) and a thinner HTL (110 nm): Examples C3 and C5, I1 and I2; for power efficiency: material in hole-transport layer 110 nm, Examples C3 and I1, H2:D2"}, "[3]": {"conditions": "electron-blocking material, blue emission (D1), ETM1 as electron-transport material"}, "[4]": {"conditions": "red-emitting mixed matrix, replacement of CBP (Examples C6 and I37)"}, "[5]": {"conditions": "electron-blocking layer, TEG1, compared with EBM1"}, "[6]": {"conditions": "OLED having an HTL with a thickness of 200 nm, Examples C5 and I2"}}}
{"compound": "c1ccc(N(c2ccc(-c3ccc(N(c4ccccc4)c4cccc5ccccc45)cc3)cc2)c2cccc3ccccc23)cc1", "note": "[NPB, reference compound]", "values": [{"measurement": "lifetime", "setting": "[1]; [3]", "value": 5200, "unit": "h"}]}
{"compound": "CC1(C)c2ccccc2-c2cc3c4cc(-c5ccc6c(c5)c5cccc7c5n6-c5ccccc5C7(C)C)ccc4n(-c4ccccc4)c3cc21", "note": "[H10, 3-(12,12-Dimethyl-10-phenyl-10,12-dihydro-10-azaindeno[2,1-b]fluoren-7-yl)-8,8-dimethyl-8H-indolo[3,2,1-de]acridine]", "values": [{"measurement": "increase in power efficiency", "setting": "[2]; mixed matrix with H3, TEG1, compared with CBP (Examples C10, I27)", "value": 60, "unit": "%"}, {"measurement": "increase in power efficiency", "setting": "[2]; mixed matrix with H3, TEG1, compared with TCTA (Examples C18, I27)", "value": "about 70%"}, {"measurement": "improvement in the voltage", "setting": "[2]; [4]", "value": 1.1, "unit": "V"}, {"measurement": "increase in the power efficiency", "setting": "[2]; [4]", "value": "about 50%"}, {"measurement": "increase in lifetime", "setting": "[1]; mixed matrix with H3, TEG1, compared with CBP", "value": "~60", "unit": "%"}]}
{"compound": "CC1(C)c2ccccc2-c2ccc(N(c3ccc(-c4ccccc4)cc3)c3ccc(-c4ccc5c(c4)c4cccc6c4n5-c4ccccc4C6(C)C)cc3)cc21", "note": "[HTM3, Biphenyl-4-yl-(9,9-dimethyl-9H-fluoren-2-yl)-[4-(8,8-dimethyl-8H-indolo[3,2,1-de]acridin-3-yl)phenyl]amine]", "values": [{"measurement": "increase in power efficiency", "setting": "[2]; [5]", "value": "about 10%"}, {"measurement": "increase in quantum efficiency", "setting": "[2]; [5]", "value": "about 10%"}, {"measurement": "increase in lifetime", "setting": "[1]; HTM3 as electron-blocking material vs NPB, blue emission", "value": 50, "unit": "%"}, {"measurement": "increase in lifetime", "setting": "[1]; HTM3 as electron-blocking material vs NPB, green emission (Examples C3, C5, I5, I6)", "value": "about 25%"}, {"measurement": "increase in lifetime", "setting": "[1]; electron-blocking layer, green-phosphorescent emitter TEG1, compared with EBM1 (Examples C12 and I17)", "value": "more than 60%"}, {"measurement": "lifetime", "setting": "[1]; [3]", "value": "about 7700 h"}]}
{"compound": "Cc1ccc(N(c2ccc(C)cc2)c2ccc3c(c2)C2(c4cc(N(c5ccc(C)cc5)c5ccc(C)cc5)ccc4-3)c3cc(N(c4ccc(C)cc4)c4ccc(C)cc4)ccc3-c3ccc(N(c4ccc(C)cc4)c4ccc(C)cc4)cc32)cc1", "note": "[HTM1, reference compound]", "values": [{"measurement": "difference between the voltage for a thick HTL (200 nm) and a thinner HTL (110 nm)", "setting": "[2]", "value": 0.5, "unit": "V"}, {"measurement": "power efficiency", "setting": "[2]", "value": 10.7, "unit": "lm/W"}, {"measurement": "lifetime", "setting": "[1]; [6]", "value": "250,000 h"}]}
{"compound": "CC1(C)c2ccccc2-n2c3ccc(N(c4ccccc4)c4ccc(-c5ccc(N(c6ccccc6)c6ccc7c(c6)c6cccc8c6n7-c6ccccc6C8(C)C)cc5)cc4)cc3c3cccc1c32", "note": "[HTM8, N4,N4′-Bis-(8,8-dimethyl-8H-indolo[3,2,1-de]acridin-3-yl)-N4,N4′-diphenylbiphenyl-4,4′-diamine]", "values": [{"measurement": "difference between the voltage for a thick HTL (200 nm) and a thinner HTL (110 nm)", "setting": "[2]", "value": 0.3, "unit": "V"}, {"measurement": "reduction of operating voltage", "setting": "[2]; HTM8 in hole-transport layer 110 nm, Example I1 compared with Example C3, H2:D2", "value": 0.2, "unit": "V"}, {"measurement": "improvement in the power efficiency", "setting": "[2]; HTM8 in hole-transport layer, Example I1 vs C3", "value": "about 15%"}, {"measurement": "power efficiency", "setting": "[2]", "value": 12.1, "unit": "lm/W"}, {"measurement": "lifetime", "setting": "[1]; [6]", "value": "340,000 h"}, {"measurement": "improvement in lifetime", "setting": "[1]; hole-transport layer thickness 110 nm, HTM8 vs HTM1", "value": 10, "unit": "%"}]}
